Source: paper PMC8668916
These are yes or no findings as the source states them, for the method shown. In cells and extracts the contact can be indirect. Here binding means that the protein was enriched with, or labelled near, the bait; the list need not be complete.

Protein sequences, listed by entry. Tags and fused reporters are not part of them.
UniProt O94759: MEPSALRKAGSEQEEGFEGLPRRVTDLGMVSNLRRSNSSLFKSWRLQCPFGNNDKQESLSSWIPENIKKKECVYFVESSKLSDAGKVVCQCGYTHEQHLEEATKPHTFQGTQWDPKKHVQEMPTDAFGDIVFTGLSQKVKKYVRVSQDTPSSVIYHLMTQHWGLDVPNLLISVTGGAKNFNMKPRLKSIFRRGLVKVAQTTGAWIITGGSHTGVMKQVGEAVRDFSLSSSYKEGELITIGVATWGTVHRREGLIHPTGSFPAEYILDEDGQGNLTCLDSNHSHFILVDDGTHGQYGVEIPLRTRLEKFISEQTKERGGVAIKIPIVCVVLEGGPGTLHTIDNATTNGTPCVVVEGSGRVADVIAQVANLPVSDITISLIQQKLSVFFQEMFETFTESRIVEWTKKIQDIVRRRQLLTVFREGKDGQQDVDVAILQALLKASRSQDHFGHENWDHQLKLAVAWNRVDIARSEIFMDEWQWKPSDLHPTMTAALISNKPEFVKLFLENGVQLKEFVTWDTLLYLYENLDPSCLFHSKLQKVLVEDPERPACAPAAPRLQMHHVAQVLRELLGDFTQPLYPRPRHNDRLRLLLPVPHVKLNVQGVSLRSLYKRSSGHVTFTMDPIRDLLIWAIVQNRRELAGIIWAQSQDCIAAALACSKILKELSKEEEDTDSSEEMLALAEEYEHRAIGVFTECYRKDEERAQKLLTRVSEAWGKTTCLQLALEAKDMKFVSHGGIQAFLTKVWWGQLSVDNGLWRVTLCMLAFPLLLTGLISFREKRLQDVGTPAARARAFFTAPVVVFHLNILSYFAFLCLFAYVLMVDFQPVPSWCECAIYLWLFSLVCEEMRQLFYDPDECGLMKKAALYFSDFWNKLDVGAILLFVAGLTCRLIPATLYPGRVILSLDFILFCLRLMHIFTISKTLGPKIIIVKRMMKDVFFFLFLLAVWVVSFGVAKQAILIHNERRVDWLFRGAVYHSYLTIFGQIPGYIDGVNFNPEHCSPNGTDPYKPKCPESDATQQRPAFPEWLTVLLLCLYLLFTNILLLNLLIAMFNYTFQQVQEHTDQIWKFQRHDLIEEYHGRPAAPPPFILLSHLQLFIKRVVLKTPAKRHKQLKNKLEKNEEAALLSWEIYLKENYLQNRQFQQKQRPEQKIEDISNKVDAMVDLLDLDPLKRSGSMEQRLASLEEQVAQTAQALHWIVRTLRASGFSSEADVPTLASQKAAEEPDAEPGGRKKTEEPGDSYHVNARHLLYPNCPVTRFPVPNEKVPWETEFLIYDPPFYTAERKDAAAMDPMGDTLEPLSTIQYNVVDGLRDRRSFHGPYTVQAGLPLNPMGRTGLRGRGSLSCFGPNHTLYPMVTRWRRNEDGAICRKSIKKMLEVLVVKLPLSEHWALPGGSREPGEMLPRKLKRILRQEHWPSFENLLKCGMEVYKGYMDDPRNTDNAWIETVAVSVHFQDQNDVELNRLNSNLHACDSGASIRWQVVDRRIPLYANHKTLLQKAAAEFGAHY
UniProt P19474: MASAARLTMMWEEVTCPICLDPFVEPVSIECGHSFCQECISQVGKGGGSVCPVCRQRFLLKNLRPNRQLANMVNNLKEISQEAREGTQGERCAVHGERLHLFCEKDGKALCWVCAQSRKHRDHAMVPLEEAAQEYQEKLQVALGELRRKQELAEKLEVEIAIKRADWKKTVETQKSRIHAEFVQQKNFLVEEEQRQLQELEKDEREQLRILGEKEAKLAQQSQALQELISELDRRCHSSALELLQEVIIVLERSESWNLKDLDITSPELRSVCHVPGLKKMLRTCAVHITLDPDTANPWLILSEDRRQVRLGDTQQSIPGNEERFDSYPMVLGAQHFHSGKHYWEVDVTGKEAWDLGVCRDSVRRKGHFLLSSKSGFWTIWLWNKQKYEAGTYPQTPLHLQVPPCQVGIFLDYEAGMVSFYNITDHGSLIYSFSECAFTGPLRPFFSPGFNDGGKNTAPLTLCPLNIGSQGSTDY

Biological target: TRPM2 (Transient receptor potential cation channel subfamily M member 2) (human (endogenous in THP-1)) (UniProt O94759)
Assay: affinity purification with mass spectrometry; pull-down of TRPM2 from shNC and shAS (lncTRPM2-AS-silenced) THP-1 cells; TRPM2-interacting proteins identified by mass spectrometry

- binding: binds
Substance: E3 ubiquitin ligase TRIM21 (from UniProt P19474 1-475) (enzyme)
